# Measurements reported in patent US20090118310A1, “Activated Cdc42-associated kinase (ACK) as a therapeutic target for Ras-induced cancer” (UNIVERSITY OF MEDICINE AND DENTISTRY OF NEW JERSEY, priority 2005, published 2009).
# Protein sequences, listed by entry. Tags and fused reporters are not part of them. Residues count along the entry.
# UniProt Q07912, 38-378 H250G: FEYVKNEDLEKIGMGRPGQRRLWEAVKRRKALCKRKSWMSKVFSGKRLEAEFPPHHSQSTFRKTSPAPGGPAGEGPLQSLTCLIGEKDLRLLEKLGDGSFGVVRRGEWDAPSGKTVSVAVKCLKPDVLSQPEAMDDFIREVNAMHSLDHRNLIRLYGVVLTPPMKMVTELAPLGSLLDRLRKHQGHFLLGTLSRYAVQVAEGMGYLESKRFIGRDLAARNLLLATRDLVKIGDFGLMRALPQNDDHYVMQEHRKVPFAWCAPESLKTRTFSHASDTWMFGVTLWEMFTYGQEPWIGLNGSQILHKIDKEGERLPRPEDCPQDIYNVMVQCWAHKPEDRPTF
# At least one structure is not confirmed: it was looked up by name or label, or the drawing left a doubt.
# Biological target: T1, ACK-1 kinase (GST-ACKD, amino acids 101-441) (Homo sapiens, UniProt Q07912)
# T1 construct: made in house; host or cells: Escherichia coli BL21 (pGEX-2TH vector)
# Assay: In vitro kinase assay of GST-ACKD with MBP as substrate
# Type: biochemical
# Details: FIG. 4C dose response, FIG. 4D inhibitors at 200 nmol/L
# Protocol: Escherichia coli BL21 cells transformed with pGEX-ACKD were grown at 30° C. to early logarithmic phase and protein expression was induced by adding 0.1 mmol/L isopropyl-L-thio-β-D-galactopyranoside. After 3 hours of incubation, cells were harvested, resuspended in lysis buffer [50 mmol/L Tris (pH 7.5), 0.73 mol/L sucrose, 5 mmol/L MgCl2, 0.5% (v/v) NP40], and disrupted by sonication. Cells were centrifuged at 10,000×g for 30 minutes at 4° C. The supernatant was applied to the glutathione-Sepharose column equilibrated with WED buffer [20 mmol/L Tris (pH 7.5), 2 mmol/L MgCl2, 1 mmol/L DTT] followed by washing with WED buffer. […]
# The purified GST-ACKD (˜5 μg per reaction) was incubated in kinase reaction buffer [50 mmol/L HEPES-KOH (pH 7.2), 10 mmol/L magnesium acetate, 5 mmol/L DTT] containing 7.5 μg MBP, 100 μmol/L ATP, and 4 μCi [γ-^33P]ATP for 10 minutes at 30° C. […] Proteins were separated by SDS-PAGE, and radioactivity incorporated into the substrate was quantified by using the Kodak Imaging Station 2000R. […]
# Different kinase inhibitors were added to the ACK-1 kinase reaction as described above in General Procedures. Phosphorylation of MBP was determined by SDS-PAGE and autoradiography. The level of MBP phosphorylation was determined by scanning MBP bands using Kodak Imaging Station 2000R and plotted as arbitrary units. […]
smiles,measurement,value
COC[C@H]1OC(=O)c2coc3c2[C@@]1(C)C1=C(C3=O)[C@@H]2CCC(=O)[C@@]2(C)C[C@H]1OC(C)=O [wortmannin],inhibition of kinase activity of ACK (MBP phosphorylation),very weak activity
